{
  "source": "PubChem BioAssay (NCATS)",
  "note": "Some of the results follow. The main result of the screen is listed elsewhere. These columns were measured beside it and carry no call. Most of these compounds were active or inconclusive in the main read-out, so they are no random draw. The note in brackets gives the kind of curve behind each potency; many fits are weak.",
  "data": [
    {"assay": "S16 Schwann cell PMP22 intronic element beta-lactamase assay (AID 624044)", "details": "S16 rat Schwann cells, PMP22 element beta-lactamase FRET, 24 h; measured here: 530 nm viability channel", "how_it_was_run": "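Rat S16 Schwann cells with beta-Lac driven by a PMP22 intronic element, compound-treated 24 h at 37 °C. LiveBLAzer FRET B/G read: 460 nm normalized to potassium clavulanate vs DMSO; 535 nm FRET as viability; concentration-effect curves classified.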", "values": [
      {"smiles": "CC(=O)Nc1ccc(S(=O)(=O)Nc2ccc([N+](=O)[O-])cc2)cc1", "AC50": "28.2 µM [falling, single point]"},
      {"smiles": "CCC(C)C(=O)OC1CCC=C2C=CC(C)C(CCC3CC(O)CC(=O)O3)[C@@H]21", "note": "(stereo partly specified)", "AC50": "0.355 µM [falling, full curve, poor fit]"},
      {"smiles": "NC(=O)C(c1ccccc1)(c1ccccc1)[C@@H]1CCN(CCc2ccc3c(c2)CCO3)C1", "AC50": "1.58 µM [falling, full curve]"},
      {"smiles": "Cc1cn([C@H]2C[C@H](O)[C@@H](CO)O2)c(=O)[nH]c1=O", "AC50": "0.316 µM [falling, full curve]"},
      {"smiles": "Nc1ncn(C2C[C@H](O)[C@@H](CO)O2)c(=O)n1", "note": "(stereo partly specified)", "AC50": "31.6 µM [falling, single point]"},
      {"smiles": "CC(C)CCC[C@@H](C)[C@H]1CC[C@H]2[C@@H]3CC[C@@H]4C[C@H](O)CC[C@]4(C)[C@H]3CC[C@]12C", "AC50": "12.6 µM [falling, single point]"},
      {"smiles": "CC1CCCCN1CCCOC(=O)c1ccccc1", "note": "(stereo unspecified)", "AC50": "28.2 µM [rising, single point]"},
      {"smiles": "O=P(O)(O)CP(=O)(O)O", "AC50": "28.2 µM [falling, single point]"},
      {"smiles": "CC[C@@]1(O)C(=O)OCc2c1cc1n(c2=O)Cc2cc3c([N+](=O)[O-])cccc3nc2-1", "AC50": "1.12 µM [rising, full curve]"},
      {"smiles": "Cc1cccc(C)c1NC(=O)C1CCCCN1C", "note": "(stereo unspecified)", "AC50": "12.6 µM [falling, single point]"},
      {"smiles": "CNCC(=O)NC(CCCN=C(N)N)C(=O)NC(C(=O)NC(Cc1ccc(O)cc1)C(=O)NC(C(=O)NC(Cc1cnc[nH]1)C(=O)N1CCCC1C(=O)NC(C)C(=O)O)C(C)C)C(C)C", "note": "(stereo unspecified)", "AC50": "2.24 µM [falling, full curve, poor fit]"}
    ]}
  ]
}
